Here are results for one molecule from ChEMBL document CHEMBL1140113, “Structural requirements for drug inhibition of the liver specific human organic cation transport protein 1” (J Med Chem, 2008).

One may read the IC50 as the point on the concentration scale where inhibition reaches its midpoint.

For the experiment, the target named is T1, Solute carrier family 22 member 1 (Homo sapiens, UniProt O15245).
T1 sequence (O15245 whole entry): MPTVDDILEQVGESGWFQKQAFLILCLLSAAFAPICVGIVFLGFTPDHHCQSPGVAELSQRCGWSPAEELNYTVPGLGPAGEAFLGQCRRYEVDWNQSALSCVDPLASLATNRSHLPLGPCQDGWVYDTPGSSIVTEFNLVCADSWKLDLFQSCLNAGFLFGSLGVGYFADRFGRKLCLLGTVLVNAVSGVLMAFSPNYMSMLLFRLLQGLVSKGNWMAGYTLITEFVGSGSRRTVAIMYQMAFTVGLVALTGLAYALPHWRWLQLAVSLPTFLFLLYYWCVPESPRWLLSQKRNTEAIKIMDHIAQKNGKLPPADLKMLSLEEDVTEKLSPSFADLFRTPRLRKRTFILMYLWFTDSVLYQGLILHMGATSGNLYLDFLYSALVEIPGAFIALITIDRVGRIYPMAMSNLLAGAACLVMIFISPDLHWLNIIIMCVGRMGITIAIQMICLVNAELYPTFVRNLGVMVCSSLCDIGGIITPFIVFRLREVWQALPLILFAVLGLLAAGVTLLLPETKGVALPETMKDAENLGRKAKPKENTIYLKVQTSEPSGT
It counts as cell-based, HEK293.

For the molecule `CN1[C@@H]2CC[C@H]1C[C@@H](OC(=O)C(CO)c1ccccc1)C2` (stereo partly specified) [ATROPINE], the IC50 amounted to 12.2 µM. This counts as double-digit micromolar.
